Data reported in PMC11952666.
No constants are given. Whether binding was seen depends on the method and setting. Binding seen in cells or lysates may run through a third protein. Some binding calls cover weakened binding; strength is not graded here.

The chains behind the UniProt entries cited, without tags or fusion partners.
UniProt Q9UKA4: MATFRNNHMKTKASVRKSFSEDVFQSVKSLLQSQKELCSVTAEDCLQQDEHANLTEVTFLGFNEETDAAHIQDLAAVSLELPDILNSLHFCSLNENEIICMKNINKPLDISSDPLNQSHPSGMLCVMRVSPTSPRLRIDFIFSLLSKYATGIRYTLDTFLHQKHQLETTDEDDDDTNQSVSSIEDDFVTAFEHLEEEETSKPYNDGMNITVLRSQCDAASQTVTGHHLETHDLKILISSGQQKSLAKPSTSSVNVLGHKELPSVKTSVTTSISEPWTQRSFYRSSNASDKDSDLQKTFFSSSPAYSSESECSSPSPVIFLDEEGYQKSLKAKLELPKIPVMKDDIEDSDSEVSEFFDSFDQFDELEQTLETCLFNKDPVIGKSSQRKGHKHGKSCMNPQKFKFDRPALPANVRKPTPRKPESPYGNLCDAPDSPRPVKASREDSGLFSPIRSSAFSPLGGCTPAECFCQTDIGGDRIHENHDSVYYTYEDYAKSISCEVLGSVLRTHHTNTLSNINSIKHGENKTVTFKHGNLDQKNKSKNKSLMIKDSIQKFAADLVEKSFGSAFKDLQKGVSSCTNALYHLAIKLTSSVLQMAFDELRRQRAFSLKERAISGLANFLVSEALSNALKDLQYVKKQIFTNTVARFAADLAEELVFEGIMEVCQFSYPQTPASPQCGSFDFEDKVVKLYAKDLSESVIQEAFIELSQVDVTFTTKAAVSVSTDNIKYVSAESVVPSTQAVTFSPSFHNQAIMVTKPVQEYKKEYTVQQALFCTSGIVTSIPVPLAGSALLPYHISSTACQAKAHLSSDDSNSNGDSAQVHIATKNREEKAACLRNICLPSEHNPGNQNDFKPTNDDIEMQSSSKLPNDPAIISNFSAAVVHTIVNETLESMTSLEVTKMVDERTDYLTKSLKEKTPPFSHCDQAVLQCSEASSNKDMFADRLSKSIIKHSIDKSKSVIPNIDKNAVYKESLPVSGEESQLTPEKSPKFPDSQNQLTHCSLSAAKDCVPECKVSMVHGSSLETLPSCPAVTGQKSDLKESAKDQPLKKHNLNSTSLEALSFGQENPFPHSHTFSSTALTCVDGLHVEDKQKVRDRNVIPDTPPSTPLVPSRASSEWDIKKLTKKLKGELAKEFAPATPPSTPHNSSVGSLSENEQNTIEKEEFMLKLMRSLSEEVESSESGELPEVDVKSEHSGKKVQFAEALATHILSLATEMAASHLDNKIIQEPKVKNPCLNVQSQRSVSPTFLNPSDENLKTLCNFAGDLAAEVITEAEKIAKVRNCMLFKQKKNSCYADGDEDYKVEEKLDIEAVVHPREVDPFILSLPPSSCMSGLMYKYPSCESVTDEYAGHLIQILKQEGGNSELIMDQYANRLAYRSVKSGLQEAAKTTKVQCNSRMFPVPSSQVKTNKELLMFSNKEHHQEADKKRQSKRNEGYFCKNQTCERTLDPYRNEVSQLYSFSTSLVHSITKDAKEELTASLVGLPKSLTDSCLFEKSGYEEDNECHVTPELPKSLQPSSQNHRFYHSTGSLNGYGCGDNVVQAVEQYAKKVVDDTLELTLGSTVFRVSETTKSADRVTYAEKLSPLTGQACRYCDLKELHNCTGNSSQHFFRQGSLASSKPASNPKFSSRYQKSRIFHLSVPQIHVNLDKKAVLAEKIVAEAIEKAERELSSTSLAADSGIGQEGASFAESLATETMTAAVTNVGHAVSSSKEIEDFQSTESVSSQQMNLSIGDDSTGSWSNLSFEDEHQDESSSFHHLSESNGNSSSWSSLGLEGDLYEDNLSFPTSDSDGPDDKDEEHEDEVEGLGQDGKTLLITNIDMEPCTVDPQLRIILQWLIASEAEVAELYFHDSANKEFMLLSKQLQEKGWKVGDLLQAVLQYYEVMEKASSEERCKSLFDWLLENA
UniProt Q9QY76: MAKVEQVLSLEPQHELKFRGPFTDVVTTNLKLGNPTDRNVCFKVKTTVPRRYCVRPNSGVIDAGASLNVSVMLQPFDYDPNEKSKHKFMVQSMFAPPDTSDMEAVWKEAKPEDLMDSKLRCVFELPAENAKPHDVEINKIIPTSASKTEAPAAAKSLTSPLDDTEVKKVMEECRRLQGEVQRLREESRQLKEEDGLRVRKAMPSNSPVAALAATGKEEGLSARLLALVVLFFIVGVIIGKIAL
UniProt Q9DBC7: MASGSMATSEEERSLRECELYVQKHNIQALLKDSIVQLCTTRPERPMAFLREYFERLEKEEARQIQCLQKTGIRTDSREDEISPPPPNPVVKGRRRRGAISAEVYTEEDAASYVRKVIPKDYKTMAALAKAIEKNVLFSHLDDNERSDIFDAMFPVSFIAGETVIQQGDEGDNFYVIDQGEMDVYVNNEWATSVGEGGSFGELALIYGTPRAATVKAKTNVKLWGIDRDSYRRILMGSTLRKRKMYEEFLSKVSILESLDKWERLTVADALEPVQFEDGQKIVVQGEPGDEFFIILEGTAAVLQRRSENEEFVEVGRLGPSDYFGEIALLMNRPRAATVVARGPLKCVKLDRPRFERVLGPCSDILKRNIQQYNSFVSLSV
UniProt P12849: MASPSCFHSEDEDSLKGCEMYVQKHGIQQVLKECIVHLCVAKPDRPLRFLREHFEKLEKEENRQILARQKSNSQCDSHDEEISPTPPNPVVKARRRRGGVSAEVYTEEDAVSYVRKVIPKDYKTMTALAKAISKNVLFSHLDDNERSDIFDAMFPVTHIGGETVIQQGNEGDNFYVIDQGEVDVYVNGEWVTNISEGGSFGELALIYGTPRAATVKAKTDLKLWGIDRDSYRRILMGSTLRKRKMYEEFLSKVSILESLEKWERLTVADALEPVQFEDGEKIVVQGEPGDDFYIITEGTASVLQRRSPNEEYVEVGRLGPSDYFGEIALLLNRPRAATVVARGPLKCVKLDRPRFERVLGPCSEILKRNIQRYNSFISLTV
UniProt Q6NSW3: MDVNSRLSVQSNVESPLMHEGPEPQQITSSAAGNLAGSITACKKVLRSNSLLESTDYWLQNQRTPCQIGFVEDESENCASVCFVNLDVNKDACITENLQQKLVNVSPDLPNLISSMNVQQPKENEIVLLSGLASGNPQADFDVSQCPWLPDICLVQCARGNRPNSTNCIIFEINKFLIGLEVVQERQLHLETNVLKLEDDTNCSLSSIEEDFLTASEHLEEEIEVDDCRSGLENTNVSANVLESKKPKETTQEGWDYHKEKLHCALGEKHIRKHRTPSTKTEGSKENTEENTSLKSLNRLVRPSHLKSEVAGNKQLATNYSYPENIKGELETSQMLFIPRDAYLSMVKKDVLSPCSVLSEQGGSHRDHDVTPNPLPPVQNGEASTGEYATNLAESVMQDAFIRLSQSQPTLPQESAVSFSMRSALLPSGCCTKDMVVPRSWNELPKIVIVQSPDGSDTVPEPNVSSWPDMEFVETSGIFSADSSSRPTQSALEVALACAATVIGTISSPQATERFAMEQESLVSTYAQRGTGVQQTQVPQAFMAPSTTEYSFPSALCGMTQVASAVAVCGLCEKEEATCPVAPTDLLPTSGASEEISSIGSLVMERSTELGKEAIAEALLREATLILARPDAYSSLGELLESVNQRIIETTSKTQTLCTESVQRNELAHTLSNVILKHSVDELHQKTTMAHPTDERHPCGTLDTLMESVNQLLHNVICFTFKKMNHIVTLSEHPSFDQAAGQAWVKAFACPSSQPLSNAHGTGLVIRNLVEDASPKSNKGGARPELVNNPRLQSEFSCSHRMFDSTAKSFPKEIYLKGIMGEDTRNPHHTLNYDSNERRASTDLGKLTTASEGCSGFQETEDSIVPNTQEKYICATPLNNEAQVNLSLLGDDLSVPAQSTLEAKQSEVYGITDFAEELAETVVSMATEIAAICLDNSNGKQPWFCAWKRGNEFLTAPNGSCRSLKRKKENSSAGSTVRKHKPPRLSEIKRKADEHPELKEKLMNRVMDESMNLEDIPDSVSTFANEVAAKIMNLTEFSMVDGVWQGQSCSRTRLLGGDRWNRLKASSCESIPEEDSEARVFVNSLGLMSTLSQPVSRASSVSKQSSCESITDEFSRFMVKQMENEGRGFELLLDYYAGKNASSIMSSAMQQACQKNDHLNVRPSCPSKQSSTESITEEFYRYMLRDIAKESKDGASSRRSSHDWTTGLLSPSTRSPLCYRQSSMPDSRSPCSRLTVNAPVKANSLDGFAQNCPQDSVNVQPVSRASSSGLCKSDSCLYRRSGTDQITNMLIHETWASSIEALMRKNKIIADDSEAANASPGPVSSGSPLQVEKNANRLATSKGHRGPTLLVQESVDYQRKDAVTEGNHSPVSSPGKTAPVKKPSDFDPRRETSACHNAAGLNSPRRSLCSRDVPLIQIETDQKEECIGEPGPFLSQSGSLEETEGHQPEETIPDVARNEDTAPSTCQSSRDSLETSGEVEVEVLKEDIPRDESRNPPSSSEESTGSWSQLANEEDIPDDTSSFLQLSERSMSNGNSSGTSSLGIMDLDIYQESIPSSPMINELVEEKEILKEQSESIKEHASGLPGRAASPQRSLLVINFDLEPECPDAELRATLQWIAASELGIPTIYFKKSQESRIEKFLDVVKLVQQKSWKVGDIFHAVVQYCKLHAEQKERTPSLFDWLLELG

B1: VAPA (protein, UniProt Q9WV55 1-249)
chain: MASASGAMAKHEQILVLDPPSDLKFKGPFTDVVTTNLKLQNPSDRKVCFKVKTTAPRRYCVRPNSGIIDPGSIVTVSVMLQPFDYDPNEKSKHKFMVQTIFAPPNISDMEAVWKEAKPDELMDSKLRCVFEMPNENDKLNDMEPSKAVPLNASKQDGPLPKPHSVSLNDTETRKLMEECKRLQGEMMKLSEENRHLRDEGLRLRKVAHSDKPGSTSAVSFRDNVTSPLPSLLVVIAAIFIGFFLGKFIL

Each molecule was assayed against AKAP11-eGFP fusion protein (UniProt Q9UKA4) (assay: co-IP; GFP-trap magnetic particles (Chromotek), 1 mg brain lysate of AKAP11-eGFP transgenic and non-transgenic mice, overnight at 4°C, washed with RIPA buffer, immunoblot).

binding, binds:
VAPB (from UniProt Q9QY76 1-243)
PKA regulatory subunit RIα (from UniProt Q9DBC7 1-381)
PKA regulatory subunit RIβ (from UniProt P12849 1-381)
SPHKAP (from UniProt Q6NSW3 1-1687)
B1
